In patent US6608189B1, “Fluorescent protein sensors for measuring the pH of a biological sample” (University of California, priority 1998, dated 2003):
For at least one compound, name, drawing or mass did not settle the structure.

System: mitochondrial matrix of chick skeletal myotubes
Assay: mitochondrial matrix pH with mito-YFP H148G in chick skeletal myotubes
Format: cell-based
Details: 25 uM
Text: Fluorescence was also examined, and pH measured, in primary cultures of chick skeletal myotubes transfected with the mito-YFP H148G mutant. […] Thereafter fluorescence continued to be observed during calibration at ph 6.9, 7.6 and 8.0.

Structure (SMILES): C=C[C@@]1(C)CC(=O)[C@]2(O)[C@@]3(C)[C@@H](O)CCC(C)(C)[C@@H]3[C@H](O)[C@H](OC(C)=O)[C@@]2(C)O1 [forskolin]
- effect on mitochondrial pH: did not affect the pH
